The record followed here is article PMC7278938, “The MKK-Dependent Phosphorylation of p38α Is Augmented by Arginine Methylation on Arg49/Arg149 during Erythroid Differentiation” (International Journal of Molecular Sciences, 2020).

Sequences of proteins named here, by UniProt entry; tags and fusion partners are left off. A change or cut given only in a name is not applied to a line headed by its entry. A line that says so, or that is headed by a name, gives the form on record, which may keep a tag or linker.
UniProt Q16539: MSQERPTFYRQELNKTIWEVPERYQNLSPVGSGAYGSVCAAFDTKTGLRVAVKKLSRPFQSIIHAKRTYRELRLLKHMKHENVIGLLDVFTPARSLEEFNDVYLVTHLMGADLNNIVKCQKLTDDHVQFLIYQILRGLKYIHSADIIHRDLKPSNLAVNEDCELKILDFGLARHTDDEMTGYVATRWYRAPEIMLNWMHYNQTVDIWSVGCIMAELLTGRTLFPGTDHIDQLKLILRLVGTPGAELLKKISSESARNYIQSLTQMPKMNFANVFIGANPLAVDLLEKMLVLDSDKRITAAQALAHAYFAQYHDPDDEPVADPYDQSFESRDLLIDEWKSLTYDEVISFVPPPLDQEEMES
Flag-p38α R49/149K mutant (Q16539, form named): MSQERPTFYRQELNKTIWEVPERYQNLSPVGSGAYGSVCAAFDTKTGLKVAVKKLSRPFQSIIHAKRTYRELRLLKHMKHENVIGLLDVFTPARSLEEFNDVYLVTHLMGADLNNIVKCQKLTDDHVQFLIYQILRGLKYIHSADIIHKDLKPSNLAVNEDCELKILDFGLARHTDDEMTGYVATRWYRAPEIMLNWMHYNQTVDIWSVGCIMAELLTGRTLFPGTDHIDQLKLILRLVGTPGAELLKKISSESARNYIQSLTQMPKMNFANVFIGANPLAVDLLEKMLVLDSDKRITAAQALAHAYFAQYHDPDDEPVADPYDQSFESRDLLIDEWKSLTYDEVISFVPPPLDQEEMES
UniProt Q16644: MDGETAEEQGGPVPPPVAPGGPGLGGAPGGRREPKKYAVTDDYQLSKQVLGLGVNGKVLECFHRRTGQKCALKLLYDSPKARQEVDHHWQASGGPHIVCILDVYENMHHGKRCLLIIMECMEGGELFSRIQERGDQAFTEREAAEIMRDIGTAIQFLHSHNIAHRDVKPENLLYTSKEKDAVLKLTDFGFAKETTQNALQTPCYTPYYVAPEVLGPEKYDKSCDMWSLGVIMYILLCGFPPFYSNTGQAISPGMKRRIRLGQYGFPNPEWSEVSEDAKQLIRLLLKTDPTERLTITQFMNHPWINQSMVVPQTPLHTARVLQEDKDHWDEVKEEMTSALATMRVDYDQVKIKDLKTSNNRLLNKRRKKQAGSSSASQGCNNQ

The target in test [1] is Flag-p38α wild type (UniProt Q16539 1-360). In words: affinity purification with mass spectrometry; Flag-p38α wild type or R49/149K co-expressed with HA-PRMT1 in p38α KD K562 cells, AraC stimulated, anti-Flag immunoprecipitates fractionated by SDS-PAGE and analysed by LC-MS/MS; hits filtered by Ingenuity Pathway Analysis.
For test [2], the target named is Flag-p38α R49/149K mutant (UniProt Q16539 1-360, R49/149K | R49/149K). Described as above.

No constants are given. Whether binding was seen depends on the method and setting. Binding seen in cells or lysates may run through a third protein. Here binding means that the protein was enriched with, or labelled near, the bait; the list need not be complete.

Regarding “MAPK-activated protein kinase 3 (MAPKAPK3) (from UniProt Q16644 1-382) (enzyme)”, the binding entry in test [1] and in test [2] was “binds” throughout.
